PubChem BioAssay AID602196, INSERM, 2012
Test: 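Modifiers of cisplatin sensitivity in A549 cells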. Cells: human A549 lung cancer cells. Reagent: siRNA pair against human genes. Duration: 48 h transfection before cisplatin; time from cisplatin to read-out not stated. Treatment: cisplatin at a dose killing half of control-siRNA cells; exact dose and duration not given. Measurement: 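Cisplatin cell death as a shift from the 50% death seen with control siRNA; siRNAs toxic or growth-blocking alone scored 0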. Scale: two-siRNA summed score (-2 to +2): higher = both siRNAs protect from cisplatin killing; -2 means both sensitise; mean protection from cisplatin (shift in death): higher = protection from cisplatin killing. Rule for the call: 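Each siRNA scores 0 if harmful alone by LDH or WST-1, otherwise +1 if it reduces and -1 if it increases cisplatin killing; a gene is active when both siRNAs agree (sum +2 or -2)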. Calls: active = both siRNAs shift cisplatin killing the same way; inactive = no consistent shift, or siRNA harmful alone.
Here is one part, drawn at random, of about 23,000 reagents tested. 455 of them (2%) count as active. 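Active includes both protection and sensitisation; some change values fall well beyond the stated -50 to +50 range.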 Not all columns of the deposit are shown. Not given: the amount of reagent.

Knock-down of FCRL6 (Fc receptor like 6) gave: two-siRNA summed score (-2 to +2) = 0; mean protection from cisplatin (shift in death) (%) = 5.6; inactive. KCNJ6 (potassium inwardly rectifying channel subfamily J member 6) showed two-siRNA summed score (-2 to +2) = -1; mean protection from cisplatin (shift in death) (%) = -28; inactive. After knock-down of AMY1A (amylase alpha 1A) the results were two-siRNA summed score (-2 to +2) = 1; mean protection from cisplatin (shift in death) (%) = 21.8; inactive. OBP2B (odorant binding protein 2B) gave two-siRNA summed score (-2 to +2) = 0; mean protection from cisplatin (shift in death) (%) = -5.6; inactive. With knock-down of RPN1 (ribophorin I), the record shows two-siRNA summed score (-2 to +2) = 1; mean protection from cisplatin (shift in death) (%) = 10.6; inactive. After knock-down of LOC338870, the screen gave two-siRNA summed score (-2 to +2) = 0; mean protection from cisplatin (shift in death) (%) = 8.3; inactive.

For KPNA4 (karyopherin subunit alpha 4) the deposit lists two-siRNA summed score (-2 to +2) = 0; mean protection from cisplatin (shift in death) (%) = 7.5; inactive. Knock-down of INTS13 (integrator complex subunit 13) resulted in: two-siRNA summed score (-2 to +2) = 0; mean protection from cisplatin (shift in death) (%) = 7.8; inactive. LOC442228 scored two-siRNA summed score (-2 to +2) = 0; mean protection from cisplatin (shift in death) (%) = 5.9; inactive. After knock-down of CRB2 (crumbs cell polarity complex component 2), the record shows two-siRNA summed score (-2 to +2) = 0; mean protection from cisplatin (shift in death) (%) = -2.7; inactive. Against NHEJ1 (non-homologous end joining factor 1), the entry reads two-siRNA summed score (-2 to +2) = 0; mean protection from cisplatin (shift in death) (%) = -5.3; inactive. After knock-down of TCAF1 (TRPM8 channel associated factor 1), the record shows two-siRNA summed score (-2 to +2) = 0; mean protection from cisplatin (shift in death) (%) = 6.2; inactive.

Part of the list above, limited to “mean protection from cisplatin (shift in death) (%)”.
NHEJ1 (non-homologous end joining factor 1)	-5.3
TCAF1 (TRPM8 channel associated factor 1)	6.2
